# Assay results from PubChem BioAssay AID2685 (National Center for Advancing Translational Sciences (NCATS), 2010).
# The list shows a part of the results. These are further read-outs of the screen, such as a control signal, another cell line or another target. No call is given for them. Most of these compounds were active or inconclusive in the main read-out, so they are no random draw. Words in brackets tell the shape of the fitted curve; partial curves, single points and poor fits give uncertain potencies.
# Assay: qHTS Assay for Lipid Storage Modulators in Drosophila S3 Cells;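 for cell number change: cells counted by Cell Tracker Red CMTPX staining in the red channel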
# Conditions: BODIPY lipid droplet fluorescence, 18-24 h; for cell number change: measured here: cell count max response, cells fed with added oleic acid
# Procedure, shortened: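 Laser-scanning cytometry quantifies lipid droplet accumulation (500–530 nm total intensity; droplet/cell object ratio) in oleic acid-fed (400 uM added) Drosophila S3 cells treated with a concentration series. 20 uM Triacsin C defined 100% inhibition.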
# [1] = measured here: lipid fluorescence (Fed channel) AC50, cells fed with added oleic acid
# [2] = measured here: cell number channel AC50, cells fed with added oleic acid
SMILES,cell number change,AC50 [1],AC50 [2]
Cc1cc(C)c(C)c(OCCOCCN2CCN(C)CC2)c1,-6.43%,"29.1 µM [falling, single point]",–
CNC(=O)c1c(NC(=O)c2cccc(C)c2)sc2c1CCC2,–,"6.51 µM [falling, single point]",–
O=C1NC(Cc2c[nH]c3ccccc23)C(=O)N1Cc1cccc2ccccc12 (centres undefined),15.6%,"0.00461 µM [rising, full curve, poor fit]",–
Cc1ccc(NC(=O)CSc2nncs2)cc1Cl,3.29%,"0.517 µM [falling, full curve]",–
CC1(C)CC(CC(=O)O)(c2ccc(Cl)cc2)CCO1 (centres undefined),–,"4.11 µM [falling, partial curve]",–
CCCc1cc(C(=O)Nc2ccc(CC)cc2)no1,-8.33%,–,–
COc1ccc(Cl)cc1NC(=S)Nc1cccc(C)c1,98.5%,"4.11 µM [falling, single point]","6.51 µM [falling, single point]"
Cc1c(NS(=O)(=O)c2ccc(Cl)c(C(=O)OC(C)C(=O)NCc3ccco3)c2)c(=O)n(-c2ccccc2)n1C (centres undefined),-16.1%,–,–
CCOc1ccc([C@@H]2CC=C(C(=O)O)[C@H](c3ccc(Cl)cc3)N2S(=O)(=O)c2ccc(C)cc2)cc1,-16%,"29.1 µM [rising, single point]",–
N/C(=N\OC(=O)c1cccs1)c1cccnc1,10.9%,"0.326 µM [falling, full curve, poor fit]",–
Cc1cc(C)n(C(=O)c2cc3sccc3[nH]2)n1,-20.9%,"6.51 µM [rising, single point]",–
Cc1ccc(C)c(C(=O)Nc2cc(C)nn2-c2nc(C)cc(C)n2)c1,34.8%,–,"29.1 µM [rising, single point]"
N#Cc1cccc(-n2c(-c3ccccc3)nnc2-c2ccccc2)c1C#N,–,–,"0.164 µM [rising, full curve, poor fit]"
CCN(CC)c1ccc(C(=O)NC(=S)Nc2cc(S(=O)(=O)N3CCOCC3)ccc2-n2cncn2)cc1,-44.1%,–,"0.00411 µM [falling, full curve, poor fit]"
Cc1nn(C(=O)CN2C(=O)c3ccccc3C2=O)c(C)c1Br,11.2%,"25.9 µM [rising, single point]",–
Cc1ccc(C2C3=C(Nc4[nH]n(-c5ccccc5)c(=O)c42)c2ccccc2C3=O)cc1 (centres undefined),6.84%,–,–
Cc1ccc(Cl)cc1NC(=O)COc1ccccc1,12.7%,–,–
CCCc1ccc(C(=O)N2CCN(c3ccccc3OCC)CC2)cc1,66.2%,–,–
COc1ccc(C(Nc2cc(C)ccn2)c2ccc3ccc(C)nc3c2O)cc1 (centres undefined),–,"29.1 µM [falling, single point]",–
CC(=O)Nc1ccccc1C(=O)C(=O)Nc1ccc(Cl)cc1,43.2%,"29.1 µM [rising, single point]",–
Nc1ccc(-c2nnn(CC(=O)N3CCCCC3)n2)cc1,9.38%,"18.4 µM [rising, single point]",–

# Single records, from the list above.
# Cc1cc(C)n(C(=O)c2cc3sccc3[nH]2)n1 in the list: cell number change: -20.9%; AC50 [1]: 6.51 µM [rising, single point]
# Cc1c(NS(=O)(=O)c2ccc(Cl)c(C(=O)OC(C)C(=O)NCc3ccco3)c2)c(=O)n(-c2ccccc2)n1C (centres undefined) in the list: cell number change: -16.1%

# Pulled by compound from above:
SMILES,cell number change,AC50 [1],AC50 [2]
COc1ccc(Cl)cc1NC(=S)Nc1cccc(C)c1,98.5%,"4.11 µM [falling, single point]","6.51 µM [falling, single point]"
Cc1nn(C(=O)CN2C(=O)c3ccccc3C2=O)c(C)c1Br,11.2%,"25.9 µM [rising, single point]",–

# Next records:

SMILES,cell number change,AC50 [1],AC50 [2]
Cc1ccc(NC(=O)C(=O)NCC2CCCO2)cc1C (centres undefined),4.78%,"4.61 µM [falling, single point]",–
O=c1cc(CN2CCN(Cc3ccccc3)CC2)c2ccc(O)cc2o1,35.9%,"29.1 µM [falling, single point]","25.9 µM [rising, partial curve]"
COC(=O)Cc1ccc2c3ccccc3n(C)c2c1,-1.6%,"0.116 µM [falling, full curve, poor fit]",–
CCn1nc(C)cc1C(=O)NC1CC(C)(C)Cc2c1cnn2-c1cccc(F)c1 (centres undefined),–,"29.1 µM [falling, single point]",–
O=Cc1cn(CCC(=O)O)nc1-c1cccc(Br)c1,-40.4%,–,"29.1 µM [falling, single point]"
COC(=O)C1=C(C)N(Cc2ccccc2)C(=NCC2CC2)N[C@H]1c1ccccc1,-15.8%,–,–
CC(=O)N1CCN(S(=O)(=O)c2cccc(C(=O)Nc3ccc(C)cn3)c2)CC1,-27.7%,–,–
COC(=O)c1sc(S(=O)(=O)NC(Cc2ccccc2)C(=O)O)c(C(=O)OC)c1C (centres undefined),6.7%,"1.03 µM [falling, full curve, poor fit]","1.84 µM [falling, partial curve, poor fit]"
Cc1cc(NC(=O)C2CCCC2)nc2c1c(=O)oc1ccccc12,22.7%,"0.366 µM [rising, partial curve, poor fit]",–
Cc1ccc(CN2CC(C(=O)Nc3ccc4c(C)cc(=O)oc4c3)CC2=O)cc1 (centres undefined),49.1%,"0.58 µM [rising, single point]","0.461 µM [rising, single point]"
COCc1cc(C)nc2oc(C(=O)c3ccccc3)c(N)c12,14.2%,"25.9 µM [falling, partial curve]",–
c1ccc(-c2noc(CN3CCN(c4ccccc4)CC3)n2)cc1,17%,"14.6 µM [rising, single point]",–
COC(=O)c1ccc(NC(=O)COC(=O)C2CCC2)cc1,22.9%,–,–
Cc1nc2ccccc2n1/N=C/c1cccnc1,122%,"0.461 µM [rising, full curve, poor fit]","2.31 µM [rising, partial curve]"
COc1ccc(CNC(=O)Cn2c(=O)oc3cc(S(=O)(=O)N4CCCC4)ccc32)cc1,-26.9%,"29.1 µM [falling, single point]",–
O=C(CSc1ccc2ccccc2c1)Nc1ccc(S(=O)(=O)Nc2nccs2)cc1,–,"20.6 µM [rising, partial curve]","6.51 µM [rising, single point]"
CC(=O)c1cnc2cc(-c3cccc(Br)c3)nn2c1C,28.4%,"29.1 µM [rising, single point]",–
Cc1ccccc1N=C1SC(CC(=O)Nc2ccc3ccccc3c2)C(=O)N1Cc1ccccn1 (centres undefined),-22.7%,–,–
CCc1cccc(CC)c1NC(=O)COc1ccccc1C(=O)c1cc(C#N)c(=O)n(C2CCCCC2)c1,13.2%,–,–
O=C(O)c1cc(Cl)c2ccccc2c1O,-9.84%,"0.731 µM [falling, single point]",–
O=C(COc1ccc2c3c(c(=O)oc2c1)CCCC3)NCC(O)c1ccccc1 (centres undefined),-4.56%,–,–

SMILES,cell number change,AC50 [1],AC50 [2]
CCOC(=O)C1=C(O)/C(=C/c2ccc(CNC(=O)C(=O)Nc3ccc(C)cc3)o2)N=C1C,–,"0.651 µM [rising, single point]","0.82 µM [rising, single point]"
Cc1cc(C)c2c(c1)/C(=N/Nc1ccc(S(N)(=O)=O)cc1[N+](=O)[O-])CCC2,-24.2%,–,"1.84 µM [falling, partial curve, poor fit]"
COc1cc(NC(=O)c2cc(-n3cnnc3)ccc2Cl)cc(OC)c1,14.8%,"0.0461 µM [falling, full curve, poor fit]",–
Cc1ccc2nc(SCc3ccc([N+](=O)[O-])cc3)[nH]c2c1,0.394%,"0.0058 µM [rising, full curve, poor fit]",–
O=C(CSc1c2c(nc3cc(Cl)ccc13)CCCC2)NCc1ccco1,40.6%,"11.6 µM [rising, partial curve, poor fit]","0.092 µM [rising, full curve]"
CC(C)CNC(=O)C1CCCN1S(=O)(=O)c1ccc(Cl)cc1 (centres undefined),-0.368%,"2.06 µM [falling, partial curve]","0.517 µM [rising, single point]"
Nc1ccccc1SC1CC(=O)N(c2ccc(Cl)c(Cl)c2)C1=O (centres undefined),-54.4%,"18.4 µM [falling, single point]","29.1 µM [falling, single point]"
CSc1ccc(-c2cccc([N+](=O)[O-])c2)nn1,38.5%,"29.1 µM [rising, single point]","29.1 µM [rising, single point]"
C/C(=N/NS(=O)(=O)c1ccc(C)cc1C)c1ccc2c(c1)OCO2,-11.9%,"29.1 µM [rising, single point]",–
COc1cccc(NC(=S)N(CCN(C)C)Cc2cccs2)c1,–,–,"0.00411 µM [rising, full curve, poor fit]"
O=C(O)CCc1ccccc1OC(=O)c1ccccc1,-17.4%,"3.66 µM [rising, single point]",–
CCCn1nnnc1SCC(=O)c1ccc(NC(C)=O)cc1,47.4%,"14.6 µM [rising, partial curve]","6.51 µM [rising, partial curve]"
CC(=O)Nc1ccc(OS(=O)(=O)c2cc(Cl)ccc2C)cc1,16.9%,–,–
COc1cccc(NC(=O)C2C3C=CC(O3)C2C(=O)NCc2cccnc2)c1 (centres undefined),4.64%,"29.1 µM [rising, single point]",–
COc1ccccc1C(=O)NNC(=S)NC(=O)c1cccs1,29.7%,"20.6 µM [rising, single point]",–
CN(Cc1nc(-c2ccncc2)no1)S(=O)(=O)c1ccc(Br)cc1,–,"1.03 µM [rising, full curve]",–
CC(NC(=O)c1c(O)c2ccccc2n(C)c1=O)c1ccccc1 (centres undefined),-12.3%,"1.03 µM [rising, full curve]",–
COc1ccc(N(C(C)=O)S(=O)(=O)c2cc(OC)ccc2OC)cc1,-7.5%,"29.1 µM [rising, single point]",–
COc1cccc(C(=O)NC2CCN(CC(=O)Nc3nccs3)CC2)c1,16.9%,"4.11 µM [rising, partial curve, poor fit]",–
Cc1cc(C)n(CCCNC(=O)c2ccc3c(c2)NC(=O)CS3)n1,–,"1.46 µM [rising, partial curve]",–
